Data: article PMC11005723, “Development of Complementary Photo‐arginine/lysine to Promote Discovery of Arg/Lys hPTMs Interactomes” (Advanced Science, 2024)
The source gives many values for each of these; only a part stands here.

Test system: HEK293T nuclear lysates
Experiment: SILAC‐based pull‐down proteomics H4K5me1/H4K5 (probes 6/5)
Assay type: binding, human

Substance: probe 6: H4K5me peptide probe with photo‐arginine R(dz) and K(biotin) (SGRGKGGKGLGKGGK; photo-arginine R(dz) at 3; monomethyl-lysine at 5; K(biotin) at 15)
- C6 log (H4K5me/H4K5) (protein TARDBP (A0A087WX29), run C6): 0.06408
- B6 log2 (H4K5me/H4K5) (protein TBC1D10B (Q4KMP7), SILAC run B6): -0.82
- C6 log (H4K5me/H4K5) (protein TBC1D10B (Q4KMP7), SILAC run C6): -0.8332
- B6 log2 (H4K5me/H4K5) (protein TBL1X (O60907), SILAC run B6): -0.4337
- C6 log (H4K5me/H4K5) (protein TBL1X (O60907), SILAC run C6): 0.1566
- B6 log2 (H4K5me/H4K5) (protein TCOF1 (E7ETY2), run B6): 0.06374
- C6 log (H4K5me/H4K5) (protein TCOF1 (E7ETY2), run C6): 0.06778
- B6 log2 (H4K5me/H4K5) (protein TDP2 (O95551), SILAC run B6): -0.2347
- C6 log (H4K5me/H4K5) (protein TDP2 (O95551), SILAC run C6): -0.3371
- B6 log2 (H4K5me/H4K5) (protein TFCP2 (Q12800), SILAC run B6): -0.226
- C6 log (H4K5me/H4K5) (protein TFCP2 (Q12800), SILAC run C6): -0.1433
- B6 log2 (H4K5me/H4K5) (protein THOC3 (Q96J01), run B6): -0.02427
- C6 log (H4K5me/H4K5) (protein THOC3 (Q96J01), run C6): -0.4251
- B6 log2 (H4K5me/H4K5) (protein TKT (P29401), run B6): -0.001446
- C6 log (H4K5me/H4K5) (protein TKT (P29401), run C6): -0.309
- B6 log2 (H4K5me/H4K5) (protein TLK1 (Q9UKI8), SILAC run B6): -0.3264
- C6 log (H4K5me/H4K5) (protein TLK1 (Q9UKI8), SILAC run C6): -0.3771
- B6 log2 (H4K5me/H4K5) (protein TMOD3 (Q9NYL9), SILAC run B6): -0.3085
- C6 log (H4K5me/H4K5) (protein TMOD3 (Q9NYL9), SILAC run C6): -1.063
- B6 log2 (H4K5me/H4K5) (protein TNPO1 (Q92973), run B6): 0.003426
- C6 log (H4K5me/H4K5) (protein TNPO1 (Q92973), run C6): 0.2807
- B6 log2 (H4K5me/H4K5) (protein TOP2B (Q02880), SILAC run B6): -0.2407
- C6 log (H4K5me/H4K5) (protein TOP2B (Q02880), SILAC run C6): 0.0006504
- B6 log2 (H4K5me/H4K5) (protein TOR1AIP1 (J3KN66), run B6): 0.005639
- C6 log (H4K5me/H4K5) (protein TOR1AIP1 (J3KN66), run C6): 0.2183
- B6 log2 (H4K5me/H4K5) (protein TOX4 (O94842), run B6): 0.03209
- C6 log (H4K5me/H4K5) (protein TOX4 (O94842), run C6): 0.01294
- B6 log2 (H4K5me/H4K5) (protein TPR (P12270), SILAC run B6): -0.2081
- C6 log (H4K5me/H4K5) (protein TPR (P12270), SILAC run C6): -0.1529
- B6 log2 (H4K5me/H4K5) (protein TRA2B (P62995), run B6): 0.09147
- C6 log (H4K5me/H4K5) (protein TRA2B (P62995), run C6): -0.2447
- B6 log2 (H4K5me/H4K5) (protein TUBB4A (P04350), run B6): 0.09667
- C6 log (H4K5me/H4K5) (protein TUBB4A (P04350), run C6): -0.1168
- B6 log2 (H4K5me/H4K5) (protein TUBB (P07437), run B6): -0.003096
- C6 log (H4K5me/H4K5) (protein TUBB (P07437), run C6): -0.1261
- B6 log2 (H4K5me/H4K5) (protein TUFM (P49411), run B6): 0.05599
- C6 log (H4K5me/H4K5) (protein TUFM (P49411), run C6): 0.129
- B6 log2 (H4K5me/H4K5) (protein TWISTNB (Q3B726), SILAC run B6): -0.295
- C6 log (H4K5me/H4K5) (protein TWISTNB (Q3B726), SILAC run C6): -0.2962
- B6 log2 (H4K5me/H4K5) (protein U2AF2 (P26368), run B6): 0.04128
- C6 log (H4K5me/H4K5) (protein U2AF2 (P26368), run C6): -0.06874
- B6 log2 (H4K5me/H4K5) (protein U3KQC1 WDR18, run B6): 0.3185
- C6 log (H4K5me/H4K5) (protein U3KQC1 WDR18, run C6): 0.3711
- B6 log2 (H4K5me/H4K5) (protein UBXN7 (O94888), run B6): -0.000976
- C6 log (H4K5me/H4K5) (protein UBXN7 (O94888), run C6): -0.03102
- B6 log2 (H4K5me/H4K5) (protein UHRF1 (Q96T88), run B6): 0.09349
- C6 log (H4K5me/H4K5) (protein UHRF1 (Q96T88), run C6): -0.03299
- B6 log2 (H4K5me/H4K5) (protein UIMC1 (Q96RL1), run B6): 0.08201
- C6 log (H4K5me/H4K5) (protein UIMC1 (Q96RL1), run C6): 0.1173
- B6 log2 (H4K5me/H4K5) (protein USP7 (Q93009), run B6): 0.01798
- C6 log (H4K5me/H4K5) (protein USP7 (Q93009), run C6): 0.1122
- B6 log2 (H4K5me/H4K5) (protein USP48 (Q86UV5), run B6): 0.08212
- C6 log (H4K5me/H4K5) (protein USP48 (Q86UV5), run C6): 0.1334
- B6 log2 (H4K5me/H4K5) (protein UTP18 (Q9Y5J1), run B6): 0.0224
- C6 log (H4K5me/H4K5) (protein UTP18 (Q9Y5J1), run C6): 0.05862
- B6 log2 (H4K5me/H4K5) (protein VBP1 (P61758), SILAC run B6): -0.3433
- C6 log (H4K5me/H4K5) (protein VBP1 (P61758), SILAC run C6): 0.1802
- B6 log2 (H4K5me/H4K5) (protein VCP (P55072), run B6): -0.006138
- C6 log (H4K5me/H4K5) (protein VCP (P55072), run C6): -0.1903
- B6 log2 (H4K5me/H4K5) (protein VDAC2 (A0A0A0MR02), run B6): 0.02708
- C6 log (H4K5me/H4K5) (protein VDAC2 (A0A0A0MR02), run C6): -0.1746
- B6 log2 (H4K5me/H4K5) (protein VEZF1 (J3QSH4), run B6): 0.03466
- C6 log (H4K5me/H4K5) (protein VEZF1 (J3QSH4), run C6): -0.1124
- B6 log2 (H4K5me/H4K5) (protein WDHD1 (O75717), run B6): 0.007853
- C6 log (H4K5me/H4K5) (protein WDHD1 (O75717), run C6): -0.06137
- B6 log2 (H4K5me/H4K5) (protein WDR70 (Q9NW82), SILAC run B6): -0.4594
- C6 log (H4K5me/H4K5) (protein WDR70 (Q9NW82), SILAC run C6): -0.2575
- B6 log2 (H4K5me/H4K5) (protein WDR75 (Q8IWA0), run B6): -0.006599
- C6 log (H4K5me/H4K5) (protein WDR75 (Q8IWA0), run C6): -0.0202
- B6 log2 (H4K5me/H4K5) (protein X6RGJ2 HP1BP3, run B6): 0.285
- C6 log (H4K5me/H4K5) (protein X6RGJ2 HP1BP3, run C6): 0.001942
- B6 log2 (H4K5me/H4K5) (protein XRCC1 (P18887), run B6): 0.0923
- C6 log (H4K5me/H4K5) (protein XRCC1 (P18887), run C6): 0.008144
- B6 log2 (H4K5me/H4K5) (protein YBX1 (P67809), SILAC run B6): -0.2509
- C6 log (H4K5me/H4K5) (protein YBX1 (P67809), SILAC run C6): -0.05048
- B6 log2 (H4K5me/H4K5) (protein YEATS4 (O95619), run B6): 0.09899
- C6 log (H4K5me/H4K5) (protein YEATS4 (O95619), run C6): 0.2125
- B6 log2 (H4K5me/H4K5) (protein YWHAG (P61981), SILAC run B6): -0.4802
- C6 log (H4K5me/H4K5) (protein YWHAG (P61981), SILAC run C6): 0.4619
- B6 log2 (H4K5me/H4K5) (protein YWHAQ (P27348), run B6): 0.0723
- C6 log (H4K5me/H4K5) (protein YWHAQ (P27348), run C6): 0.2364
- B6 log2 (H4K5me/H4K5) (protein YWHAZ (P63104), run B6): 0.07401
- C6 log (H4K5me/H4K5) (protein YWHAZ (P63104), run C6): 0.1135
- B6 log2 (H4K5me/H4K5) (protein YY1 (P25490), run B6): 0.09671
- C6 log (H4K5me/H4K5) (protein YY1 (P25490), run C6): 0.04048
- B6 log2 (H4K5me/H4K5) (protein ZC3H11A (O75152), run B6): 0
- C6 log (H4K5me/H4K5) (protein ZC3H11A (O75152), run C6): 0.04185
- B6 log2 (H4K5me/H4K5) (protein ZC3HC1 (C9J0I9), SILAC run B6): -0.683
- C6 log (H4K5me/H4K5) (protein ZC3HC1 (C9J0I9), SILAC run C6): -0.5791
- B6 log2 (H4K5me/H4K5) (protein ZFP64 (Q9NTW7), SILAC run B6): -0.2268
- C6 log (H4K5me/H4K5) (protein ZFP64 (Q9NTW7), SILAC run C6): -1.0269
- B6 log2 (H4K5me/H4K5) (protein ZFP91 isoform 2 (Q96JP5-2), SILAC run B6): -0.3672
- C6 log (H4K5me/H4K5) (protein ZFP91 isoform 2 (Q96JP5-2), SILAC run C6): -0.1238
- B6 log2 (H4K5me/H4K5) (protein ZFR (Q96KR1), run B6): 0.0403
- C6 log (H4K5me/H4K5) (protein ZFR (Q96KR1), run C6): 0.1982
- B6 log2 (H4K5me/H4K5) (protein ZHX1 (Q9UKY1), SILAC run B6): -0.3172
- C6 log (H4K5me/H4K5) (protein ZHX1 (Q9UKY1), SILAC run C6): -0.5679
- B6 log2 (H4K5me/H4K5) (protein ZMYM4 (Q5VZL5), SILAC run B6): -0.2861
- C6 log (H4K5me/H4K5) (protein ZMYM4 (Q5VZL5), SILAC run C6): 0.08954
- B6 log2 (H4K5me/H4K5) (protein ZNF24 (P17028), run B6): 0.1129
- C6 log (H4K5me/H4K5) (protein ZNF24 (P17028), run C6): 0.3732
- B6 log2 (H4K5me/H4K5) (protein ZNF316 (A6NFI3), run B6): 0.0298
- C6 log (H4K5me/H4K5) (protein ZNF316 (A6NFI3), run C6): -0.006067
- B6 log2 (H4K5me/H4K5) (protein ZNF512B (Q96KM6), SILAC run B6): -0.6169
- C6 log (H4K5me/H4K5) (protein ZNF512B (Q96KM6), SILAC run C6): -0.2219
- B6 log2 (H4K5me/H4K5) (protein ZNF579 (Q8NAF0), SILAC run B6): -0.2819
- C6 log (H4K5me/H4K5) (protein ZNF579 (Q8NAF0), SILAC run C6): -0.3049
- B6 log2 (H4K5me/H4K5) (protein ZNF629 (Q9UEG4), SILAC run B6): -0.2437
- C6 log (H4K5me/H4K5) (protein ZNF629 (Q9UEG4), SILAC run C6): -0.1864
- B6 log2 (H4K5me/H4K5) (protein ZNF768 (Q9H5H4), run B6): 0.0005657
- C6 log (H4K5me/H4K5) (protein ZNF768 (Q9H5H4), run C6): -0.2203
- B6 log2 (H4K5me/H4K5) (protein ZNF787 (Q6DD87), run B6): 0.03483
- C6 log (H4K5me/H4K5) (protein ZNF787 (Q6DD87), run C6): -0.4189
